PubChem BioAssay AID624297 (National Center for Advancing Translational Sciences (NCATS), 2012)
Hit rate of the full screen: of about 340,000 compounds, about 6,200 (1.8%) were called active. This list was built around the results that the source calls inconclusive (neither active nor inactive); the mix of calls is not that of the screen. The call rests on the fitted dose curve; in most records, active means well fitted activation curve with a large enough effect; inconclusive means small, poorly fitted or top-dose-only effect; inactive means no such curve, though single readings can be large or run the other way. Potencies of inconclusive entries are doubtful fits and often do not repeat.

experiment: A quantitative high throughput screen for small molecules that induce DNA re-replication in SW480 colon adenocarcinoma cells.; further: nearly all actives have a fitted effect of over 55% in size; settings: Hoechst DNA content imaging, 48 h; series mostly up to 46.1 µM
Method in brief: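 Image-based read-out: total Hoechst fluorescence of nuclei (405 nm excitation, 500-530 nm emission), with hits raising the fraction of high-intensity nuclei. SW480 colon cells incubated 48 hr with compounds at 37 C.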
Potency means the concentration at half of the fitted maximal effect.

Row | SMILES | Potency
1 | CCOC(=O)c1c(NC(=O)CN2C(=O)NC(C)(c3ccccc3)C2=O)sc(C)c1C (centres undefined) | inconclusive: 29.1 µM [activator, single point]
2 | COCCn1c(SCC(=O)c2[nH]c(C)c(C(C)=O)c2C)nc2ccccc2c1=O | inconclusive: 29.1 µM [activator, single point]
3 | CCOC1=NS(=O)(=O)c2ccccc21 | inactive
4 | O=C(N/N=C/c1cc([N+](=O)[O-])ccc1O)C(O)(c1ccccc1)c1ccccc1 | active: 20.6 µM
5 | COc1ccc(-c2[nH]c(-c3ccc(C(=O)O)cc3)nc2-c2ccccc2)cc1 | inactive
6 | COc1ccc(S(=O)(=O)Nc2cc(SCC(=O)O)c(O)c3ccccc23)cc1 | inconclusive: 18.4 µM [activator, partial curve, poor fit]
7 | COc1ccc(C2C3=C(CC(C)(C)CC3=O)Oc3ncn(Cc4ccccc4)c(=N)c32)cc1 (centres undefined) | inconclusive: 18.4 µM [activator, single point]
8 | COc1cc(C2C(C(=O)c3cccs3)=C(O)C(=O)N2Cc2ccco2)cc(OC)c1OC (centres undefined) | inconclusive: 18.4 µM [activator, single point]
9 | CC1(C)CC(=O)C(N=Nc2cc(C(F)(F)F)ccc2Cl)=C(O)C1 | inactive
10 | OCC(O)C1OC(c2ccccc2)OC(CO)C1O (centres undefined) | inconclusive: 20.6 µM [activator, single point]
11 | Cn1c(-c2ccccc2)c(C(=O)CCl)c2ccccc21 | inconclusive: 3.66 µM [activator, single point]
12 | Cc1cc2ccc(C)c(C)c2nc1SCC(=O)c1cccs1 | inactive
13 | CC[C@@]1(C(=O)OC)N[C@H](CN(C)C(=O)C2CCCCC2)[C@@H]2C(=O)N(Cc3ccccc3)C(=O)[C@@H]21 | inconclusive: 0.517 µM [activator, single point]
14 | CCOC(=O)c1c(NC(=O)CN2CCN(c3ccc(Cl)cc3)CC2)sc(C)c1C | inconclusive: 29.1 µM [activator, single point]
15 | O=C(Nc1ccc(N2CCOCC2)c(Cl)c1)c1c(F)c(F)c(F)c(F)c1F | inconclusive: 31.6 µM [activator, single point]
16 | O=C(CN1C(=O)S/C(=C\C=C\c2ccccc2)C1=O)Nc1cccc(O)c1 | inconclusive: 29.1 µM [activator, single point]
17 | COc1ccccc1C1c2ccc3ccccc3c2Oc2ncn(CCCO)c(=N)c21 (centres undefined) | inactive
18 | CC(=O)N1N=C(c2cccc([N+](=O)[O-])c2)OC1(C)CC(=O)Nc1ccccc1 (centres undefined) | inactive
19 | COc1ccc(C(=O)Nc2cc(C(C)=O)c(C)oc2=O)cc1 | inconclusive: 20.6 µM [activator, single point]

A second format for two compounds above.
Row,SMILES,Potency
10,OCC(O)C1OC(c2ccccc2)OC(CO)C1O (centres undefined),"inconclusive: 20.6 µM [activator, single point]"
11,Cn1c(-c2ccccc2)c(C(=O)CCl)c2ccccc21,"inconclusive: 3.66 µM [activator, single point]"
